Measurements taken from paper PMC3397928.
No constants are given. Whether binding was seen depends on the method and setting. Binding seen in cells or lysates may run through a third protein. Binding can be weak; no strength is given.

Protein sequences, listed by entry. Tags and fused reporters are not part of them. Lines headed by an entry give the natural chain unless they say otherwise; changes in a name come on top.
UniProt P15304: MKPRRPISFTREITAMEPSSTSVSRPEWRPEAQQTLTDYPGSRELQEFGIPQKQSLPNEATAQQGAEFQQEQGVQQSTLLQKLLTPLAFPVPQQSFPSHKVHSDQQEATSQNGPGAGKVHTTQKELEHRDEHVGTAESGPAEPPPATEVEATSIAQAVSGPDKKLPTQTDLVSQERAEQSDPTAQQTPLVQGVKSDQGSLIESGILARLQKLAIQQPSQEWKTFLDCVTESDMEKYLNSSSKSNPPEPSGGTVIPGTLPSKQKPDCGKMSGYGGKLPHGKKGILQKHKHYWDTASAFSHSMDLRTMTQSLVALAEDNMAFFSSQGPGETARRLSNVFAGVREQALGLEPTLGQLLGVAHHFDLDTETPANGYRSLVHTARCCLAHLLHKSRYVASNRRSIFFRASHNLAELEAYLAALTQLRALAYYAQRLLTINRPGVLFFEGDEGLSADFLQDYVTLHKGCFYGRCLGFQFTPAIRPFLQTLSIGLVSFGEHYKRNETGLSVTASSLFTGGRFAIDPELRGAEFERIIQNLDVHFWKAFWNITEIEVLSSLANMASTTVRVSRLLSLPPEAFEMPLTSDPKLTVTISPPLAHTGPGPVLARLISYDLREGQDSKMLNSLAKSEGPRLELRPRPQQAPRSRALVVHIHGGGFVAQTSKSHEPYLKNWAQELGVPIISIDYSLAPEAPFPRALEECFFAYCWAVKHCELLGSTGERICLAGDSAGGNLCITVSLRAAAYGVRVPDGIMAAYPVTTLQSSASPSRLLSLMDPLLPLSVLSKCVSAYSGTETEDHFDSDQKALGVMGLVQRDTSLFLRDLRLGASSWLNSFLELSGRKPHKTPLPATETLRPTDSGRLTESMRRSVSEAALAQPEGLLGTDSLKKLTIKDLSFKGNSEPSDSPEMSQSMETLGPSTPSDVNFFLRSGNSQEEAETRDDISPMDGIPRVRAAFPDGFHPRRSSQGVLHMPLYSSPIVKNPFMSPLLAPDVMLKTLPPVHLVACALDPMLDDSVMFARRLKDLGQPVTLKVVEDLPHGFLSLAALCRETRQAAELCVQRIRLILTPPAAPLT

Molecular target: hormone-sensitive lipase (HSL) (rat (endogenous in primary epididymal adipocytes)) (UniProt P15304)
Assay: co-IP; pellet fraction lysate of primary adipocytes from sedentary control (CG) and habitual exercise (EG) rats, pre-cleared with rabbit normal IgG and protein A/G agarose; primary antibody to HSL or ATGL with protein A/G agarose beads at 4°C overnight; beads washed 4 times in ice-cold PBS; immunoblotting

binding: binds
B1: perilipin 1 (protein, UniProt P43884 1-517)
chain: MSMNKGPTLLDGDLPEQENVLQRVLQLPVVSGTCECFQKTYNSTKEAHPLVASVCNAYEKGVQGASNLAAWSMEPVVRRLSTQFTAANELACRGLDHLEEKIPALQYPPEKIASELKGTISTRLRSARNSISVPIASTSDKVLGATLAGCELALGMAKETAEYAANTRVGRLASGGADLALGSIEKVVEYLLPPDKVESAPSSGRQKTQKAPKAKPSLLRRVSTLANTLSRHTMQTTARALKRGHSLAMWIPGVAPLSSLAQWGASAAMQVVSRRQSEVRVPWLHNLAASKDENHEDQTDTEGEETDEEEEEEESEAEENVLREVTALPTPLGFLGGVVHTVQKTLQNTISAVTWAPAAVLGTVGRILHLTPAQAVSSTKGRAMSLSDALKGVTDNVVDTVVHYVPLPRLSLMEPESEFQDIDNPPAEVERKGSGSRPASPESTARPGQPRAACAVRGLSAPSCPDLDDKTETSARPGLLAMPREKPARRVSDSFFRPSVMEPILGRTQYSQLRKKS
